# Results as given in patent publication US20020141999A1.
# The chains behind the UniProt entries cited, without tags or fusion partners. Where a name states a change or a piece, a line headed by the entry shows the natural chain unless it says otherwise.
# UniProt P09564: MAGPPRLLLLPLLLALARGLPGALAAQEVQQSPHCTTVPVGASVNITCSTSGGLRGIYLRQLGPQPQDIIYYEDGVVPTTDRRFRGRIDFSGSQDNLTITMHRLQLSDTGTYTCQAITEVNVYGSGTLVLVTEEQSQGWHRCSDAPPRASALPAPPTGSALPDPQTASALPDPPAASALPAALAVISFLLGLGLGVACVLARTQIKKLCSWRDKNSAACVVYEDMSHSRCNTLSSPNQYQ
# These are yes or no findings as the source states them, for the method shown. Some binding calls cover weakened binding; strength is not graded here.
# How the values were obtained:
# [1] = biological target: T1, human K12, full length, on transfected cells (human) (UniProt Q8WVN6); experiment: Fc fusion binding to transfected cells, 125I anti-human Fc
# T1 sequence: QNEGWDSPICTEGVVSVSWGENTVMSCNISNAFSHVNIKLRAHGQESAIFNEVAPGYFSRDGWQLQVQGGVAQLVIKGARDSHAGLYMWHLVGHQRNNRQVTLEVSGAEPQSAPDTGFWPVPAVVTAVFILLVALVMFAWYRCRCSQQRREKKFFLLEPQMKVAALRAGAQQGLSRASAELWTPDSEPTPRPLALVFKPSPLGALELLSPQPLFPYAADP
# [2] = biological target: T1, human K12, full length, on transfected cells (human); experiment: Fc fusion binding to transfected cells
substance,measurement,setting,value
human CD7-Fc fusion protein (from UniProt P09564 26-180),binding,[1],binds
same,binding,[2],binds
